The text below walks through data of publication PMC10776755.

For this assay, the target named is T1, TRIM39 (human (endogenous in HK-2)) (UniProt Q9HCM9).
T1 sequence: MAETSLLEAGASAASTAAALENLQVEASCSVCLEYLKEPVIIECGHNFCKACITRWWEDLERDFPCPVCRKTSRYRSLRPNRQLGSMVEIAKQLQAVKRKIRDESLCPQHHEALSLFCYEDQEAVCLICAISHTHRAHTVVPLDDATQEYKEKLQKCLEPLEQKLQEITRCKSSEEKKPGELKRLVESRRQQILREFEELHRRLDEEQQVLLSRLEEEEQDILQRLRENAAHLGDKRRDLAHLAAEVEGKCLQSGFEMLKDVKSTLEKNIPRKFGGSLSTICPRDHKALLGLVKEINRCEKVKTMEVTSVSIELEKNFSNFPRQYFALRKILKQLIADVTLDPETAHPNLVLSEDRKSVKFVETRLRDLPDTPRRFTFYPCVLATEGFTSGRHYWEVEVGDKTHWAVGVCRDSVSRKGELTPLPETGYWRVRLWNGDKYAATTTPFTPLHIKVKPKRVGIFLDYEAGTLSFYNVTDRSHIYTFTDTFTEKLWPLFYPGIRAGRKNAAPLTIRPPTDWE
As to the kind of experiment: affinity purification with mass spectrometry; immunoprecipitation from lysed HK-2 cells with antibody and protein A/G, SDS-PAGE and Coomassie Brilliant Blue staining; mass spectrometry of proteins found with TRIM39.

These are yes or no findings as the source states them, for the method shown. Binding seen in cells or lysates may run through a third protein. These calls come from enrichment with a bait or labelling near it, and not all partners need be listed.

Regarding “thioredoxin-dependent peroxide reductase (human (endogenous in HK-2))”, the binding result is recorded as “binds”.
